Experimental data: patent US20180273636A1
Results are given in words; binding and its absence hold for the method and conditions named. Some results given as binding are weak or reduced against the parent protein; the word gives no strength.

Assays:
[1] = biological target: Her2 (from Acrobiosystems) (UniProt P04626); assay: SPR competition analysis on immobilised Her2
[2] = biological target: Her2 (from Acrobiosystems) (UniProt P04626); assay: SPR, immobilised Her2 with and without Trastuzumab (competitor)
[3] = biological target: Her2 (from Acrobiosystems) (UniProt P04626); assay: SPR on immobilised Her2 pre-loaded with Trastuzumab (competitor)

Measured: binding

B1: Affilin-143692 (designed binder)
chain: MQIFVKTLTAGNPSHMHHGKTITLEVEPSDTIENVKAKIQDKEGIPPDQQRLIWAGKQLEDGRTLSDYNIDDMHWLILLLNLRAA
binds: all assays above
